Experimental data: article PMC6769930
No constants are given. Whether binding was seen depends on the method and setting. For part of these data: In cells and extracts the contact can be indirect. Some binding calls cover weakened binding; strength is not graded here. For part of these data: Where a sequence is shown, tags or fusion partners need not be part of it.

Amino acid sequences for entries named in this document (tags omitted).
UniProt Q14151: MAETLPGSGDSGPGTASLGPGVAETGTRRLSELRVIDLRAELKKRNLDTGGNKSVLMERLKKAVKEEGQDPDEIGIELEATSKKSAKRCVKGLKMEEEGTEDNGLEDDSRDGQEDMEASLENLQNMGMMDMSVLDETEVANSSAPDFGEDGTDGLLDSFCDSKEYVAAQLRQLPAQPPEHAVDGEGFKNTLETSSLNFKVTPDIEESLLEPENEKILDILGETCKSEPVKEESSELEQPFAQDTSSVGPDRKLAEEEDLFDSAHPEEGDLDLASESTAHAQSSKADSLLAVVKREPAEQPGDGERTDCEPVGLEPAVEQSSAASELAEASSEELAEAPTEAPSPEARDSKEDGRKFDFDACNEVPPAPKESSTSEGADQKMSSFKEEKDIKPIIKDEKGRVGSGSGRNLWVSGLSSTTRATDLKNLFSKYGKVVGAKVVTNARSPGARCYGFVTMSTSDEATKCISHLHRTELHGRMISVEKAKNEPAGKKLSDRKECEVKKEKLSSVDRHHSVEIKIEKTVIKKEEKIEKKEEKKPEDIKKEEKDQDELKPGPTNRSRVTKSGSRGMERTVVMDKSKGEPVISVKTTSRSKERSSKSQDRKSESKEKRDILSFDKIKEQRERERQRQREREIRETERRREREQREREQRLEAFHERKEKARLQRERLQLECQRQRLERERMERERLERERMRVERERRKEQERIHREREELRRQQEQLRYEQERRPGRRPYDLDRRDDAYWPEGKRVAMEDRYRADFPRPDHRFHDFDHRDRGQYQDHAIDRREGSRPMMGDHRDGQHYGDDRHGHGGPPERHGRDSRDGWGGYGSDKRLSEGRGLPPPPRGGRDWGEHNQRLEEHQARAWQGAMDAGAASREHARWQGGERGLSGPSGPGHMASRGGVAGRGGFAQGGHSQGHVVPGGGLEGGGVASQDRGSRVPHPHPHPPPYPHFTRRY
UniProt Q8NE71: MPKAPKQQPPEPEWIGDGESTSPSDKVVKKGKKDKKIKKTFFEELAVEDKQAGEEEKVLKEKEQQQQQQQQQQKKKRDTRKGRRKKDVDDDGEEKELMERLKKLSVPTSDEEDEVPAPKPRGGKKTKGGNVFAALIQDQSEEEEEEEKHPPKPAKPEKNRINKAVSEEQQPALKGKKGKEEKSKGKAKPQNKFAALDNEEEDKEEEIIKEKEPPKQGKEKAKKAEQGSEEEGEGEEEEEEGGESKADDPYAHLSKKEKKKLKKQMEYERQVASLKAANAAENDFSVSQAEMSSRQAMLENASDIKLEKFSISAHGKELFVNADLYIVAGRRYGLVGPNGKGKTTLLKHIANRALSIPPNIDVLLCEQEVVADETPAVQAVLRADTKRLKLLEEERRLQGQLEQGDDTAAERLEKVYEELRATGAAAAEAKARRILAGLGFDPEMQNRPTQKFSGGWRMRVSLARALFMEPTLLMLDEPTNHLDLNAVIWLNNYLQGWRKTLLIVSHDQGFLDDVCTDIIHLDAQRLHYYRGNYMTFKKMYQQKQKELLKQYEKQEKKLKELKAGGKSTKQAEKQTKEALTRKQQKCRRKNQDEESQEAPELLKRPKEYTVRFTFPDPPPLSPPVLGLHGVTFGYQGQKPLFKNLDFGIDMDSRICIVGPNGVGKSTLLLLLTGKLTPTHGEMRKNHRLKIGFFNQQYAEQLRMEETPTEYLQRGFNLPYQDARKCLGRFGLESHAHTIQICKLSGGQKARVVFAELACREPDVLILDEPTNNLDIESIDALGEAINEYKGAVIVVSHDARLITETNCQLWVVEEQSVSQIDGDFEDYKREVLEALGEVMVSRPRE
UniProt P17931: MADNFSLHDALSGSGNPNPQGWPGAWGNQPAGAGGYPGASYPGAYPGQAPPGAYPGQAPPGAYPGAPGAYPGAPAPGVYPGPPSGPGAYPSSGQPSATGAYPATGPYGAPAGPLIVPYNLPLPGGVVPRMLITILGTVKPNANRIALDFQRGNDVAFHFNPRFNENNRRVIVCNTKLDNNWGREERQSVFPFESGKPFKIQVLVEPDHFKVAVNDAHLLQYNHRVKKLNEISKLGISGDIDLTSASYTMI

Tests used:
[1] = biological target: T1, Stromal membrane-associated protein 1 (SMAP1) (human) (UniProt Q8IYB5); assay: peptide or protein array; ProtoArray human protein Microarray v5.0 (over 9000 human proteins arrayed) probed with recombinant sEng in two replicates; detection with anti-endoglin mAb SN6h and HRP secondary antibody; hits with Z-score >=2.0 in both arrays; both purified
T1 sequence: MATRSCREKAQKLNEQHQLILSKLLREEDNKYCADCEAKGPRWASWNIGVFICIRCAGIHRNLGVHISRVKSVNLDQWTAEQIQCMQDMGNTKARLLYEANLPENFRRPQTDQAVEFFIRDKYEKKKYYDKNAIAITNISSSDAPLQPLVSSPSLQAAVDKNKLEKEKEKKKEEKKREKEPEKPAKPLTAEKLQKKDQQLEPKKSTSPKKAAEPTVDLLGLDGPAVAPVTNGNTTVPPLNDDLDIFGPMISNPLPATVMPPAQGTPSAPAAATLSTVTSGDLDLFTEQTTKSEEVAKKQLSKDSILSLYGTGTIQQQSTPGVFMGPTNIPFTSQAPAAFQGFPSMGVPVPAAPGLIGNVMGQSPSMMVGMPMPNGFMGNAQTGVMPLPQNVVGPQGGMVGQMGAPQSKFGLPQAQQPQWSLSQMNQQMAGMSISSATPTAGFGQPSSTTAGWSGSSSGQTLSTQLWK

[2] = biological target: T2, Sciellin (SCEL) (human) (UniProt O95171); assay: as above
T2 sequence: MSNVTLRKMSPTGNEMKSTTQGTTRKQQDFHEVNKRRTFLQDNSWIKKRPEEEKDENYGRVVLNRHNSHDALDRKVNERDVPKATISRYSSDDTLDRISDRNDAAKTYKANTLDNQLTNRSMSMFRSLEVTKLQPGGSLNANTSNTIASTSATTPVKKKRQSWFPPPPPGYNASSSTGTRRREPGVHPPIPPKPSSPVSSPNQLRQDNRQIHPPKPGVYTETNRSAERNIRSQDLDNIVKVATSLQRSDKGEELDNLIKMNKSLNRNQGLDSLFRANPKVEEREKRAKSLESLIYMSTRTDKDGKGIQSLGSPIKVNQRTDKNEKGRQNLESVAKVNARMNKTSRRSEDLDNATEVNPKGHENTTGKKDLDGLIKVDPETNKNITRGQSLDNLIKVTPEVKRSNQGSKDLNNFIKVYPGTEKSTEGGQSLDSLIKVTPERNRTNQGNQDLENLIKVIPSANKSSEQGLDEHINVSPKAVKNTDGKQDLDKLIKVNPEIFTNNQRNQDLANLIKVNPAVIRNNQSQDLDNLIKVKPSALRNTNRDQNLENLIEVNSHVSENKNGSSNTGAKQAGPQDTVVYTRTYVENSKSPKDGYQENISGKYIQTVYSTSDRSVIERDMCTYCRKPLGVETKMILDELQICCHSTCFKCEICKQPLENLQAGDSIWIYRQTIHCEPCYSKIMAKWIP

[3] = biological target: Scaffold attachment factor B2 (SAFB2) (human) (UniProt Q14151); assay: as above
[4] = biological target: T3, Putative E3 ubiquitin-protein ligase SH3RF2 (human) (UniProt Q8TEC5); assay: as above
T3 sequence: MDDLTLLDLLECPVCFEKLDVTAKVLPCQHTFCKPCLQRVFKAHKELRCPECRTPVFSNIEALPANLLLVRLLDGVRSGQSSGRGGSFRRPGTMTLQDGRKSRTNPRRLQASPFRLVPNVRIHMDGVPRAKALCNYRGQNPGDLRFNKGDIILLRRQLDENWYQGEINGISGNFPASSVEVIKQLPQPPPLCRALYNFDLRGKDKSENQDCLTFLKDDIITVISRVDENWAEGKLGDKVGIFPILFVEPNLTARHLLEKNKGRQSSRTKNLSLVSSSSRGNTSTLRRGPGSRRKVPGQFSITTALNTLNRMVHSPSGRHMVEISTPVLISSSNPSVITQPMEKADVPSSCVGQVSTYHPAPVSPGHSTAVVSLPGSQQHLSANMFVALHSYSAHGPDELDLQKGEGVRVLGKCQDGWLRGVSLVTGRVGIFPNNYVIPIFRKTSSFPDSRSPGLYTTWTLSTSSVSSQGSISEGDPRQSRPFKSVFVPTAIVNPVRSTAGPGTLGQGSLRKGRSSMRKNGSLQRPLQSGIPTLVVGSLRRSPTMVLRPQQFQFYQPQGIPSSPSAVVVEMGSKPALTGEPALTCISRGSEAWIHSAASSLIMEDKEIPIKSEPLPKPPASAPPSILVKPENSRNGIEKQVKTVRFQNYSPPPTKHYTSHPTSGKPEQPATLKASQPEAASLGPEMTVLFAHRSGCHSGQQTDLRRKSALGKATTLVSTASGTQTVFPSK

[5] = biological target: ATP-binding cassette, sub-family F (GCN20), member 1 (ABCF1) (human) (UniProt Q8NE71); assay: as above
[6] = biological target: T4, human endoglin, full-length, from pcEXV-HA-EngFL (human) (UniProt P17813); assay: co-IP; CHO-K1 cells co-transfected with pcEXV-HA-EngFL and pcDNA3.1-Gal-3; lysis in 1% NP-40, 150 mM NaCl, 50 mM Tris pH 7.4; IP with anti-endoglin or anti-galectin-3 on protein G magnetic beads overnight at 4 °C; Western blot
T4 sequence: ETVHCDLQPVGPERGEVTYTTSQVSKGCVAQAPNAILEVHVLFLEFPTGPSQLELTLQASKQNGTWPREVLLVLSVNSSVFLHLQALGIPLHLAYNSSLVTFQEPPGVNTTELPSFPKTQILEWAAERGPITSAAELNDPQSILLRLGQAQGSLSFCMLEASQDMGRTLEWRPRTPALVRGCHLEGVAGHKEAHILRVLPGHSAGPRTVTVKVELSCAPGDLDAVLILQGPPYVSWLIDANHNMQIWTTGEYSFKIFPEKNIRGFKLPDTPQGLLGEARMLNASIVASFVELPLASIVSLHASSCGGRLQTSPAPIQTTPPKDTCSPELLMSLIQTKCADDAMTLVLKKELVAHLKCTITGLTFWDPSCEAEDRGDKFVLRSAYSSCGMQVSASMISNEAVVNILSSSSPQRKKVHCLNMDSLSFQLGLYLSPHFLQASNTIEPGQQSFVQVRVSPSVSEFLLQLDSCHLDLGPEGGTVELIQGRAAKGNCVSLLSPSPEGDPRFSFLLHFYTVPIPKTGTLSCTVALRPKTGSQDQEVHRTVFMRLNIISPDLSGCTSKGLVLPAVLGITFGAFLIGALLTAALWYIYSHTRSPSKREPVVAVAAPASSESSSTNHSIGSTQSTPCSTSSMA

binding [1] | binding [2] | binding [3] | binding [4] | binding [5] | binding [6] | Substance
binds | binds | binds | binds | binds | – | recombinant human soluble endoglin (sEng; Glu26-Gly586) (from UniProt P17813 26-586) (domain or fragment)
– | – | – | – | – | binds | human galectin-3 from pcDNA3.1-Gal-3 (from UniProt P17931 1-250)
